Experiment [1] concerns the target RAB11A (as part of the FRET biosensor) (UniProt P62491). The experiment in a line: FRET or BRET; anisotropy-based FRET of the same biosensor in clarified lysates of transfected HEK293T cells (10 mM Tris-HCl pH 7.4, 10 mM MgCl2, 100 mM NaCl, 1% Triton X-100); Rab11 inhibitor added for 5 h; excitation 430 nm, emission 535 nm. A general note: In BRET a luciferase serves as donor, and the signal depends on an acceptor being close.

Protein sequences, listed by entry. Tags and fused reporters are not part of them. Lines headed by an entry give the natural chain unless they say otherwise; changes in a name come on top.
UniProt P62491: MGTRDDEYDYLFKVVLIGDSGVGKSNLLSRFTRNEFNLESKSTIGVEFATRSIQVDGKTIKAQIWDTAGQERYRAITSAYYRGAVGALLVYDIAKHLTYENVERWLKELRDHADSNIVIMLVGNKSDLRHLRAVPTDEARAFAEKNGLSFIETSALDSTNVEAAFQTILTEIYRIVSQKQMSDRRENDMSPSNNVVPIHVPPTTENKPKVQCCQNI
UniProt O75154: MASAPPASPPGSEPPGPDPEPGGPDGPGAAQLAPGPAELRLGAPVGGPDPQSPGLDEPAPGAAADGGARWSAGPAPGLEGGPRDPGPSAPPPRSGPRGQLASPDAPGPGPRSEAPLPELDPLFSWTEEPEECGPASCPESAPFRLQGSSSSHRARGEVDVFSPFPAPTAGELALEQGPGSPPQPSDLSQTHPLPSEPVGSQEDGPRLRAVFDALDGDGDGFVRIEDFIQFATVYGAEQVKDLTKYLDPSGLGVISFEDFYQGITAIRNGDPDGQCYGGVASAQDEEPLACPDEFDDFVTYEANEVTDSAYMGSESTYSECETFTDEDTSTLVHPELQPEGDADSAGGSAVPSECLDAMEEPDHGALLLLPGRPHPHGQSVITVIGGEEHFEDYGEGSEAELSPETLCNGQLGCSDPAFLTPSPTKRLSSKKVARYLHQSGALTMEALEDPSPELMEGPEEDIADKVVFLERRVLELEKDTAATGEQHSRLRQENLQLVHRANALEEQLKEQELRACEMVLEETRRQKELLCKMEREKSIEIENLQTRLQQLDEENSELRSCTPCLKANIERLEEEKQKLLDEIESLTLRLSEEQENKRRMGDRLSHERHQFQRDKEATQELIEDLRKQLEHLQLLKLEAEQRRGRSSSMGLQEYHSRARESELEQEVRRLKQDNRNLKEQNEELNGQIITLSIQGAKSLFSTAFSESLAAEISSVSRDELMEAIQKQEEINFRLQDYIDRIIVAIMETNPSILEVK

The target is the same in experiment [2]. Briefly: FRET or BRET; biosensor probe (RAB11A, mECFP, mcpVenus and C-terminal RAB11FIP3 fused) transfected into Cos-7 cells; vehicle or Rab11-inhibitor-D6 at 20 µM for 16 h; fixed in 4% PFA; FRET ratio by confocal microscopy.

No constants are given. Whether binding was seen depends on the method and setting. Binding seen in cells or lysates may run through a third protein. Binding calls can cover weak binding; strength is not graded here.

Regarding “C-terminal portion of RAB11FIP3 (as part of the FRET biosensor) (from UniProt O75154) (domain or fragment)”, the binding entry in experiment [1] and in experiment [2] was “binds” throughout.

Source of the values: PMC11642393.
